Data taken from the supplement of paper PMC9015667.
Counter-ions that a name gives are not always drawn. This is one part of the list. Most values come without repeats; read them as rough.

Tests used:
Assay in all cases: reduction in cell viability relative to untreated/vehicle; higher = more growth inhibition
Details in all cases: 200 nM; 72 h
M229P = tested on: M229P (parental melanoma line)
M229R = tested on: M229R (matched melanoma line resistant to BRAF inhibitors)
M238P = tested on: M238P (parental melanoma line)
M238R = tested on: M238R (matched melanoma line resistant to BRAF inhibitors)
M249P = tested on: M249P (parental melanoma line)
M249R = tested on: M249R (matched melanoma line resistant to BRAF inhibitors)
UACC62P = tested on: UACC62P (parental melanoma line)
UACC62R = tested on: UACC62R (matched melanoma line resistant to BRAF inhibitors)

Measured: reduction in cell viability

O=C(CCc1ccc(O)cc1)c1c(O)cc(O)cc1O[C@@H]1O[C@H](CO)[C@@H](O)[C@H](O)[C@H]1O [Phlorizin]
< 0%: all assays above

NC(=O)OCC(COC(N)=O)c1ccccc1 [Felbamate]
8.52%: UACC62P
< 0%: all other assays above

C[C@H](N=C(NC#N)Nc1cccc2ncccc12)c1ccccc1
< 0%: all assays above

C[N+]1(C)[C@@H]2C[C@@H](OC(=O)C(O)(c3cccs3)c3cccs3)C[C@H]1[C@@H]1O[C@@H]12 [Tiotropium bromide]
11.4%: M249R
< 0%: all other assays above

CCCCCCOC(=O)NC(=N)c1ccc(NCc2nc3cc(C(=O)N(CCC(=O)OCC)c4ccccn4)ccc3n2C)cc1
< 0%: all assays above

CC(C)(O)CCc1ccc(OCc2cc(-c3cccc(OC(F)F)c3)c3ncccc3c2)cc1
< 0%: all assays above

Fetched by compound from above (2):
C[C@H](N=C(NC#N)Nc1cccc2ncccc12)c1ccccc1
< 0%: all assays above

O=C(CCc1ccc(O)cc1)c1c(O)cc(O)cc1O[C@@H]1O[C@H](CO)[C@@H](O)[C@H](O)[C@H]1O [Phlorizin]
< 0%: all assays above

Next compounds.

CC(C)n1cnc2c(NCCc3ccc(O)cc3)nc(-c3csc4ccccc34)nc21 [StemRegenin 1]
14.5%: UACC62P
< 0%: all other assays above

Cc1cn([C@H]2C=C[C@@H](CO)O2)c(=O)[nH]c1=O [Stavudine]
< 0%: all assays above

Two neighbouring entries out of the list so far:
CC(C)n1cnc2c(NCCc3ccc(O)cc3)nc(-c3csc4ccccc34)nc21 [StemRegenin 1]
14.5%: UACC62P
< 0%: all other assays above

Cc1cn([C@H]2C=C[C@@H](CO)O2)c(=O)[nH]c1=O [Stavudine]
< 0%: all assays above

(next part)

CNS(=O)(=O)CCc1ccc2[nH]cc(C3CCN(C)CC3)c2c1 [Naratriptan hydrochloride]
< 0%: all assays above

CC(C)(C)[N+]([O-])=Cc1ccc(S(=O)(=O)O)cc1S(=O)(=O)O [Disufenton sodium]
< 0%: all assays above

CNCC[C@H](Oc1cccc2ccccc12)c1cccs1 [Duloxetine hydrochloride]
< 0%: all assays above

CCCc1cc(C(N)=S)ccn1 [Protionamide]
< 0%: all assays above

C[C@@H]1C(=O)O[C@H]2C[C@@]34[C@H]5C[C@@H](C(C)(C)C)[C@]36[C@@H](OC(=O)[C@@H]6O)O[C@@]4(C(=O)O5)[C@]21O [Ginkgolide A]
< 0%: all assays above

O=S(=O)(O)CCS [Sodium 2-mercaptoethanesulfonate]
7.11%: M229R
< 0%: all other assays above

Nc1ncnc2c1ncn2[C@@H]1O[C@H](CO)[C@@H](O)[C@@H]1O [Vidarabine]
< 0%: all assays above

Cc1nc(=O)c2cc(CN(C)c3ccc(C(=O)N[C@@H](CCC(=O)O)C(=O)O)s3)ccc2[nH]1 [Raltitrexed]
28.4%: UACC62P
19.1%: M238P
11.8%: M229R
66.6%: UACC62R
< 0%: all other assays above

C=CCc1ccc(O)c(-c2ccc(O)c(CC=C)c2)c1 [Honokiol]
7.68%: UACC62P
3.2%: M238P
< 0%: all other assays above

O=C1NC(=O)/C(=C\c2ccc3nccnc3c2)S1
< 0%: all assays above

CN(C[C@@H]1COCCO1)S(=O)(=O)Nc1ccc2ccc3ncc(-c4cnn(C)c4)cc3c(=O)c2c1
< 0%: all assays above

CC(C)C[C@H](NC(=O)[C@H](CCc1ccccc1)NC(=O)CN1CCOCC1)C(=O)N[C@@H](Cc1ccccc1)C(=O)N[C@@H](CC(C)C)C(=O)[C@@]1(C)CO1 [Carfilzomib (PR-171)]
84.8%: UACC62R
87.4%: M238P
86.2%: UACC62P
96%: M249R
89.2%: M229R
90.8%: M229P
91.1%: M249P
88%: M238R

O=C(NCCCCN1CCOCC1)c1cc2ccccc2o1
< 0%: all assays above

CC(C)N(CCCNC(=O)Nc1ccc(C(C)(C)C)cc1)C[C@H]1O[C@@H](n2cc(Br)c3c(N)ncnc32)[C@H](O)[C@@H]1O
< 0%: all assays above

CCNC(=O)Nc1ccc2ncc(Nc3ccc(C)cc3)nc2n1
5.62%: UACC62P
12.6%: M249R
< 0%: all other assays above

Cc1coc2c1C(=O)C(=O)c1c-2ccc2c1CCCC2(C)C [Tanshinone IIA]
7.12%: M249R
< 0%: all other assays above

O=c1[nH]c(=O)n([C@H]2C[C@H](O)[C@@H](CO)O2)cc1I [Idoxuridine]
7.68%: M249P
< 0%: all other assays above

S=c1nc[nH]c2nc[nH]c12 [6-mercaptopurine]
3.48%: M229P
1.92%: M249R
12.3%: M229R
3.09%: UACC62P
< 0%: all other assays above

COc1cc(/C=C/C(=O)CC(=O)/C=C/c2ccc(O)c(OC)c2)ccc1O [Curcumin]
6.99%: M229R
< 0%: all other assays above

CNCc1ccc(-c2[nH]c3cc(F)cc4c3c2CCNC4=O)cc1 [Rucaparib]
< 0%: all assays above

O=C(/C=C/c1cccnc1)NCCCCC1CCN(C(=O)c2ccccc2)CC1 [FK866 (APO866, Daporinad)]
84.2%: M249P
4.54%: UACC62R
83.5%: M238P
72.6%: M249R
96.5%: M229P
58.8%: M238R
82.7%: M229R
9.82%: UACC62P

C[C@@H](N)[C@H]1CC[C@H](C(=O)Nc2ccncc2)CC1
< 0%: all assays above

COc1cc(N2CCC(C(N)=O)CC2)ccc1Nc1nc(N)c(Cl)c(Nc2ccccc2S(=O)(=O)C(C)C)n1
< 0%: all assays above

Cc1ccc(C(=O)Nc2ccc(CN3CCN(C)CC3)c(C(F)(F)F)c2)cc1C#Cc1cnc2cccnn12
36.9%: M249R | UACC62P
29.7%: M229P
0.24%: M229R
7.12%: M238R
< 0%: UACC62R
56.1%: M238P
19.2%: M249P

CC(C)(Sc1ccc(CCN(CCCCC2CCCCC2)C(=O)NC2CCCCC2)cc1)C(=O)O
< 0%: all assays above

CC[C@H](c1ccc(O)cc1)[C@@H](CC)c1ccc(O)cc1 [Hexestrol]
4.8%: UACC62P
< 0%: all other assays above

Cc1nnc(NS(=O)(=O)c2ccc(N)cc2)s1 [Sulfamethizole]
< 0%: all assays above

C[C@@H](Oc1cc(-c2cnn(C3CCNCC3)c2)cnc1N)c1c(Cl)ccc(F)c1Cl
0.22%: M229R
10.5%: UACC62P
< 0%: all other assays above

C=CC[N+]1([C@H]2C[C@H]3[C@@H]4CC[C@H]5C[C@H](O)[C@@H](N6CCOCC6)C[C@]5(C)[C@H]4CC[C@]3(C)[C@H]2OC(C)=O)CCCC1 [Rocuronium bromide]
< 0%: all assays above

COc1ccc2cc1Oc1ccc(cc1)C[C@H]1c3cc(c(OC)cc3CCN1C)Oc1c(OC)c(OC)cc3c1[C@H](C2)N(C)CC3 [Tetrandrine]
8.83%: UACC62P
< 0%: all other assays above

CNC(=O)c1ccc(C)c(-n2c(C)cc(OCc3ccc(F)cc3F)c(Br)c2=O)c1
4.65%: UACC62P
< 0%: all other assays above

COc1cccc2c1C(=O)c1c(O)c3c(c(O)c1C2=O)C[C@@](O)(C(=O)CO)C[C@@H]3O[C@H]1C[C@H](N)[C@H](O[C@@H]2CCCCO2)[C@H](C)O1 [Pirarubicin]
< 0%: all assays above

O=c1c(O)c(-c2ccc(O)cc2O)oc2cc(O)cc(O)c12 [Morin hydrate]
< 0%: all assays above

CC(NCc1ccc2c(c1)nc(NC(=O)c1ccc(-c3cn[nH]c3)s1)n2CC(C)(C)O)C(C)(C)C (centres undefined)
81.8%: M249R
80%: M249P
76.5%: UACC62R
59.7%: M229P
59.2%: M238R
72%: UACC62P
67%: M229R
70.3%: M238P

CN1C(=O)C(Cc2c[nH]c3ccccc23)NC1=S (centres undefined) [Necrostatin-1]
0.65%: UACC62P
< 0%: all other assays above
